Reference: US20080044413A1
No constants are given. Whether binding was seen depends on the method and setting. Some binding calls cover weakened binding; strength is not graded here.

Sequences of proteins named here, by UniProt entry; tags and fusion partners are left off. A change or cut given only in a name is not applied to a line headed by its entry. Residues count along the entry.
UniProt P29317: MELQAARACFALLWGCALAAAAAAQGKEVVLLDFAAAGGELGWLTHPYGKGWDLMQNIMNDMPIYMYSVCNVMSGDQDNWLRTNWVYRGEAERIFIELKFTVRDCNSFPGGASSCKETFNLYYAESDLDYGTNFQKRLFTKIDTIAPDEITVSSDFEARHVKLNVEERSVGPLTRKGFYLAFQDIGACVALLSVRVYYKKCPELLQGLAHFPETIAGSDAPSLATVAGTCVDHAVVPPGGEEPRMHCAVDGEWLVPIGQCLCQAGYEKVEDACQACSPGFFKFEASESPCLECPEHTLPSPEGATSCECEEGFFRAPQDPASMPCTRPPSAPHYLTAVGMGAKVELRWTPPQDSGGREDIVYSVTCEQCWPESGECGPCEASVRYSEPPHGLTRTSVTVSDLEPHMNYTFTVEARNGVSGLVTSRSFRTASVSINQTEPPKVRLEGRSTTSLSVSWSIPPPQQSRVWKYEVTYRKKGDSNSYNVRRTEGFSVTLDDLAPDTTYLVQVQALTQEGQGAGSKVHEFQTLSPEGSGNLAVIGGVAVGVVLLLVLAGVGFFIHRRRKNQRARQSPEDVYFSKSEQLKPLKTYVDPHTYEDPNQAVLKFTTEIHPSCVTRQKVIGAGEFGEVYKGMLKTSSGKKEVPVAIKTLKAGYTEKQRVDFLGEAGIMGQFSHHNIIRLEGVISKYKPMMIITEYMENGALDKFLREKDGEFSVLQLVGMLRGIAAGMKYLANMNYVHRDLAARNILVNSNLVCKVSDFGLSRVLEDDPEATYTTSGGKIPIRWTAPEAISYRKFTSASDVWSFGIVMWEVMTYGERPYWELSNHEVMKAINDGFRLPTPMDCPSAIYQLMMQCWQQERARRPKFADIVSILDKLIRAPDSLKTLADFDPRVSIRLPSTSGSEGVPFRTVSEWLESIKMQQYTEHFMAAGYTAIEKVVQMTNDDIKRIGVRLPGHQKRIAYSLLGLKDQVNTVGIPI
human EphA2: residues 24-976 of P29317
Human EphA2-Fc fusion protein: residues 24-537 of P29317

What was measured:
[1] = molecular target: human EphA2 (human) (UniProt P29317); assay: flow cytometry of live SW480 cells left after the cytotoxicity assay with T-cells; B233 10 µg/ml, APC anti-mouse IgG; the axis is the dose of EphA2-BiTE [B]
[2] = molecular target: human EphA2 (human) (UniProt P29317); assay: flow cytometry, 10 µg/ml, A549 and MDA-MB-231 cells
[3] = molecular target: human EphA2 (human) (UniProt P29317); assay: immunofluorescence staining, MCF10A cells; at cell-cell contacts
[4] = molecular target: human EphA2 (human) (UniProt P29317); assay: immunofluorescence staining, MDA-MB-231 cells; at membrane ruffles
[5] = molecular target: human EphA2 (human) (UniProt P29317); assay: flow cytometry on MDA MB231 cells, antibody 10 µg/ml, PE anti-mouse Fc gamma; control: irrelevant antibody of the same isotype [B]
[6] = molecular target: human EphA2 (human) (UniProt P29317); assay: flow cytometry on A549 cells, antibody 10 µg/ml, PE anti-mouse Fc gamma; control: irrelevant antibody of the same isotype [A]
[7] = molecular target: Human EphA2-Fc fusion protein (human) (UniProt P29317); assay: activity ELISA on coated human EphA2-Fc, normalised by quantification ELISA
[8] = molecular target: Human EphA2-Fc fusion protein (human) (UniProt P29317); assay: activity ELISA, scFv supernatants titrated on immobilized human EphA2 (EphA2-Fc coat), linear concentration axis
[9] = molecular target: human EphA2 (human) (UniProt P29317); assay: immunofluorescence microscopy, MCF-10A and MDA-MB-231 monolayers (data not shown)

Measured: binding

B1: anti-EphA2 monoclonal antibody B233 (antibody, V domains shown)
VH: EVKLVESGGGLVQPGGSLSLSCAASGFTFTDYSMNWVRQPPGKALEWLGFIRNKANDYTTEYSASVKGRFTISRDNSQSILYLQMNALRAEDSATYYCVRYPRYHAMDSWGQGTSVTVSS
VL: DIVLTQSPATLSVTPGDSVNLSCRASQSISNNLHWYQQKSHESPRLLIKYVFQSISGIPSRFSGSGSGTDFTLSINSVETEDFGMYFCQQSNSWPLTFGAGTKLELK
binds: [1] | [2] | [3] | [4] | [5] | [6]

B2: VH VL 2E7 scFv (scFv)
scFv: QVQLLESGGGLVQPGGSLRLSCAASGFTFSSYTMSWVRQAPGQALEWMGTISSRGTYTYYPDSVKGRFTISRDNAKNSLYLQMNSLRAEDTAVYYCAREAIFTHWGRGTLVTVSSGGGGSGGGGSGGGGSDIQLTQSPSSLSASVGDRVTITCKASQDINNYGSWYQQKPGQAPRLLIYRANRLVDGVPDRFSGSGYGTDFTLTINNIESEDAAYYFCLKYNRFPYTFGQGTKVEIK
binds: [7] | [8] | [9]
